# Measured values taken from the supplement of paper PMC8728848.
# Some of the results follow.
# B1: SJCP3842 (Schistosoma japonicum) (protein)
# chain: MFKMRIINLVNISTVLLLINLLQTKSRLVGKENGFMLTVSIYGAQLSDKMTSVPVSWTIDYEDPEKSAFKKLVTDSCDTFSEYVKSQIPKGSVDGQCTSHIFQRPGSGSGVSISLTLSFIYVDVTQPDTVALKTELEKHFANFVTIHSHKITQAQFRINQKAIVIPTGDKDAIDGSKWKIIAIIALVALAIVVIGGFIYICVK
# Experiments:
# Assay in all cases: glycan array binding signal (z-score within array); higher = stronger binding
# Details in all cases: glycan notation: IUPAC condensed, linker removed
# [1] = target: Fuc(a1-2)Gal6S(b1-3)GlcNAc6S
# Outline: (§1)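 Glycan array data came from 3228 arrays in the Consortium for Functional Glycomics database, and only arrays with an available protein sequence were kept. Glycan names were put into IUPAC-condensed notation, and columns mapping to the same glycan were averaged. The binding signal is a within-array Z-score, averaged across arrays of one protein sequence run at different concentrations or buffers and across linkers. A negative Z-score can be read as non-binding.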
# Fuc(a1-2)Gal6S(b1-4)Glc = target: Fuc(a1-2)Gal6S(b1-4)Glc
# Outline: as §1
# [2] = target: Fuc(a1-2)Gal6S(b1-4)Glc6S
# Outline: as §1
# Fuc(a1-2)[Gal(a1-3)]Gal = target: Fuc(a1-2)[Gal(a1-3)]Gal
# Outline: as §1
# [3] = target: Fuc(a1-2)[Gal(a1-3)]Gal(b1-3)GalNAc
# Outline: as §1
# [4] = target: Fuc(a1-2)[Gal(a1-3)]Gal(b1-3)GalNAc(b1-3)Gal(a1-4)Gal(b1-4)Glc
# Outline: as §1
# [5] = target: Fuc(a1-2)[Gal(a1-3)]Gal(b1-3)GlcNAc
# Outline: as §1
# [6] = target: Fuc(a1-2)[Gal(a1-3)]Gal(b1-3)GlcNAc(b1-2)Man(a1-3)[Fuc(a1-2)[Gal(a1-3)]Gal(b1-3)GlcNAc(b1-2)Man(a1-6)]Man(b1-4)GlcNAc(b1-4)GlcNAc
# Outline: as §1
# [7] = target: Fuc(a1-2)[Gal(a1-3)]Gal(b1-3)GlcNAc(b1-2)Man(a1-3)[Fuc(a1-2)[Gal(a1-3)]Gal(b1-3)GlcNAc(b1-2)Man(a1-6)]Man(b1-4)GlcNAc(b1-4)[Fuc(a1-6)]GlcNAc
# Outline: as §1
# [8] = target: Fuc(a1-2)[Gal(a1-3)]Gal(b1-3)GlcNAc(b1-3)GalNAc
# Outline: as §1
# [9] = target: Fuc(a1-2)[Gal(a1-3)]Gal(b1-3)GlcNAc(b1-6)GalNAc
# Outline: as §1
# [10] = target: Fuc(a1-2)[Gal(a1-3)]Gal(b1-4)Glc
# Outline: as §1
# [11] = target: Fuc(a1-2)[Gal(a1-3)]Gal(b1-4)GlcNAc
# Outline: as §1
# [12] = target: Fuc(a1-2)[Gal(a1-3)]Gal(b1-4)GlcNAc(b1-2)Man
# Outline: as §1
# [13] = target: Fuc(a1-2)[Gal(a1-3)]Gal(b1-4)GlcNAc(b1-2)Man(a1-3)[Fuc(a1-2)[Gal(a1-3)]Gal(b1-4)GlcNAc(b1-2)Man(a1-6)]Man(b1-4)GlcNAc(b1-4)GlcNAc
# Outline: as §1
# [14] = target: Fuc(a1-2)[Gal(a1-3)]Gal(b1-4)GlcNAc(b1-2)Man(a1-3)[Fuc(a1-2)[Gal(a1-3)]Gal(b1-4)GlcNAc(b1-2)Man(a1-6)]Man(b1-4)GlcNAc(b1-4)[Fuc(a1-6)]GlcNAc
# Outline: as §1
# [15] = target: Fuc(a1-2)[Gal(a1-3)]Gal(b1-4)GlcNAc(b1-3)GalNAc
# Outline: as §1
# [16] = target: Fuc(a1-2)[Gal(a1-3)]Gal(b1-4)GlcNAc(b1-3)[Fuc(a1-2)[Gal(a1-3)]Gal(b1-4)GlcNAc(b1-6)]GalNAc
# Outline: as §1
# [17] = target: Fuc(a1-2)[Gal(a1-3)]Gal(b1-4)GlcNAc(b1-6)GalNAc
# Outline: as §1
# [18] = target: Fuc(a1-2)[Gal(a1-3)]Gal(b1-4)[Fuc(a1-3)]Glc
# Outline: as §1
# [19] = target: Fuc(a1-2)[Gal(a1-3)]Gal(b1-4)[Fuc(a1-3)]GlcNAc
# Outline: as §1
# [20] = target: Fuc(a1-2)[Gal(a1-3)]Gal(b1-4)[Fuc(a1-3)]GlcNAc(b1-3)GalNAc
# Outline: as §1
# [21] = target: Fuc(a1-2)[Gal(a1-4)]Gal(b1-4)GlcNAc
# Outline: as §1
# [22] = target: Fuc(a1-2)[GalNAc(a1-3)]Gal
# Outline: as §1
# [23] = target: Fuc(a1-2)[GalNAc(a1-3)]Gal(b1-3)GalNAc(a1-3)[Fuc(a1-2)]Gal(b1-4)GlcNAc
# Outline: as §1
# [24] = target: Fuc(a1-2)[GalNAc(a1-3)]Gal(b1-3)GalNAc(b1-3)Gal(a1-4)Gal(b1-4)Glc
# Outline: as §1
# [25] = target: Fuc(a1-2)[GalNAc(a1-3)]Gal(b1-3)GlcNAc
# Outline: as §1
# [26] = target: Fuc(a1-2)[GalNAc(a1-3)]Gal(b1-3)GlcNAc(b1-2)Man(a1-3)[Fuc(a1-2)[GalNAc(a1-3)]Gal(b1-3)GlcNAc(b1-2)Man(a1-6)]Man(b1-4)GlcNAc(b1-4)GlcNAc
# Outline: as §1
# [27] = target: Fuc(a1-2)[GalNAc(a1-3)]Gal(b1-3)GlcNAc(b1-2)Man(a1-3)[Fuc(a1-2)[GalNAc(a1-3)]Gal(b1-3)GlcNAc(b1-2)Man(a1-6)]Man(b1-4)GlcNAc(b1-4)[Fuc(a1-6)]GlcNAc
# Outline: as §1
# [28] = target: Fuc(a1-2)[GalNAc(a1-3)]Gal(b1-3)GlcNAc(b1-3)GalNAc
# Outline: as §1
# [29] = target: Fuc(a1-2)[GalNAc(a1-3)]Gal(b1-3)GlcNAc(b1-6)GalNAc
# Outline: as §1
# [30] = target: Fuc(a1-2)[GalNAc(a1-3)]Gal(b1-4)Glc
# Outline: as §1
# [31] = target: Fuc(a1-2)[GalNAc(a1-3)]Gal(b1-4)GlcNAc
# Outline: as §1
# [32] = target: Fuc(a1-2)[GalNAc(a1-3)]Gal(b1-4)GlcNAc(b1-2)Man
# Outline: as §1
# [33] = target: Fuc(a1-2)[GalNAc(a1-3)]Gal(b1-4)GlcNAc(b1-2)Man(a1-3)[Fuc(a1-2)[GalNAc(a1-3)]Gal(b1-4)GlcNAc(b1-2)Man(a1-6)]Man(b1-4)GlcNAc(b1-4)GlcNAc
# Outline: as §1
# [34] = target: Fuc(a1-2)[GalNAc(a1-3)]Gal(b1-4)GlcNAc(b1-2)Man(a1-3)[Fuc(a1-2)[GalNAc(a1-3)]Gal(b1-4)GlcNAc(b1-2)Man(a1-6)]Man(b1-4)GlcNAc(b1-4)[Fuc(a1-6)]GlcNAc
# Outline: as §1
# [35] = target: Fuc(a1-2)[GalNAc(a1-3)]Gal(b1-4)GlcNAc(b1-3)Gal(b1-4)GlcNAc
# Outline: as §1
# [36] = target: Fuc(a1-2)[GalNAc(a1-3)]Gal(b1-4)GlcNAc(b1-3)Gal(b1-4)GlcNAc(b1-3)Gal(b1-4)GlcNAc
# Outline: as §1
# [37] = target: Fuc(a1-2)[GalNAc(a1-3)]Gal(b1-4)GlcNAc(b1-3)GalNAc
# Outline: as §1
# [38] = target: Fuc(a1-2)[GalNAc(a1-3)]Gal(b1-4)GlcNAc(b1-3)[Fuc(a1-2)[GalNAc(a1-3)]Gal(b1-4)GlcNAc(b1-6)]GalNAc
# Outline: as §1
# [39] = target: Fuc(a1-2)[GalNAc(a1-3)]Gal(b1-4)GlcNAc(b1-6)GalNAc
# Outline: as §1
# [40] = target: Fuc(a1-2)[GalNAc(a1-3)]Gal(b1-4)[Fuc(a1-3)]GlcNAc
# Outline: as §1
# [41] = target: Fuc(a1-2)[GalNAc(a1-3)]Gal(b1-4)[Fuc(a1-3)]GlcNAc(b1-3)GalNAc
# Outline: as §1
# [42] = target: Fuc(a1-2)[GalNAc(a1-4)]Gal(b1-4)GlcNAc
# Outline: as §1
# [43] = target: Fuc(a1-2)[GalNAc(b1-3)]Gal
# Outline: as §1
binder,measurement,setting,value
B1,glycan array binding signal (z-score),[1],0.201
same,glycan array binding signal (z-score),Fuc(a1-2)Gal6S(b1-4)Glc,1.84
same,glycan array binding signal (z-score),[2],1.73
same,glycan array binding signal (z-score),Fuc(a1-2)[Gal(a1-3)]Gal,0.157
same,glycan array binding signal (z-score),[3],0.105
same,glycan array binding signal (z-score),[4],-1.73
same,glycan array binding signal (z-score),[5],-0.034
same,glycan array binding signal (z-score),[6],0.96
same,glycan array binding signal (z-score),[7],0.193
same,glycan array binding signal (z-score),[8],0.478
same,glycan array binding signal (z-score),[9],-1.2
same,glycan array binding signal (z-score),[10],1.07
same,glycan array binding signal (z-score),[11],-1.13
same,glycan array binding signal (z-score),[12],-1.05
same,glycan array binding signal (z-score),[13],0.46
same,glycan array binding signal (z-score),[14],0.319
same,glycan array binding signal (z-score),[15],0.343
same,glycan array binding signal (z-score),[16],0.027
same,glycan array binding signal (z-score),[17],-0.994
same,glycan array binding signal (z-score),[18],-0.698
same,glycan array binding signal (z-score),[19],0.536
same,glycan array binding signal (z-score),[20],0.026
same,glycan array binding signal (z-score),[21],-0.102
same,glycan array binding signal (z-score),[22],0.627
same,glycan array binding signal (z-score),[23],-1.3
same,glycan array binding signal (z-score),[24],-0.004
same,glycan array binding signal (z-score),[25],0.689
same,glycan array binding signal (z-score),[26],-0.116
same,glycan array binding signal (z-score),[27],-1.18
same,glycan array binding signal (z-score),[28],-0.282
same,glycan array binding signal (z-score),[29],-0.635
same,glycan array binding signal (z-score),[30],-0.105
same,glycan array binding signal (z-score),[31],-1.04
same,glycan array binding signal (z-score),[32],-1.4
same,glycan array binding signal (z-score),[33],0.475
same,glycan array binding signal (z-score),[34],1.12
same,glycan array binding signal (z-score),[35],-0.465
same,glycan array binding signal (z-score),[36],0.96
same,glycan array binding signal (z-score),[37],-0.993
same,glycan array binding signal (z-score),[38],-0.478
same,glycan array binding signal (z-score),[39],-0.701
same,glycan array binding signal (z-score),[40],0.83
same,glycan array binding signal (z-score),[41],0.005
same,glycan array binding signal (z-score),[42],-0.125
same,glycan array binding signal (z-score),[43],-1.9

# Reformatted tab-delimited: entries from further up.
binder	measurement	setting	value
B1	glycan array binding signal (z-score)	[3]	0.105
same	glycan array binding signal (z-score)	[5]	-0.034
